# Data from PubChem BioAssay AID504444 (National Center for Advancing Translational Sciences (NCATS), 2011).
# The whole screen tested about 360,000 compounds, of which about 7,500 (2.1%) were called active. This list was built around the results that the source calls inconclusive (neither active nor inactive); the mix of calls is not that of the screen. Calls come from the whole dose curve; as a rule, active = well fitted inhibition curve with a large enough effect; inconclusive = small, poorly fitted or top-dose-only effect, or effect the other way; inactive = flat fitted curve, though single readings scatter. Where the call is inconclusive, the potency comes from a doubtful curve fit.
# Experiment: Nrf2 qHTS screen for inhibitors; note: nearly all actives have a fitted effect of over 60% in size
# Settings: A549 ARE-Fluc reporter, luciferase luminescence, 18-24 h; series mostly up to 46 µM
# Method in brief: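 Cells were seeded and rested 2 h, then exposed to compounds for 18-24 h. CellTiter-Fluor was read first as a viability measure. BugLite was added 15 min before the final luminescent read of ARE-luciferase activity in A549 cells.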
# Potency is the fitted concentration of half-maximal effect.
row,Compound,Potency
1,CCCCN(C(=O)c1cc(-c2ccco2)nc2ccccc12)c1c(N)n(CCC)c(=O)[nH]c1=O,inactive
2,Cc1cccc2c1-c1sc(C(=O)NCc3ccc(Cl)cc3)cc1CO2,"inconclusive: 29.1 µM [falling, single point]"
3,CC(C)OC(=O)c1cn(-c2ccccc2)nc1-c1ccc2c(c1)OCCO2,"inconclusive: 29.1 µM [falling, single point]"
4,COc1ccccc1NS(=O)(=O)c1cc(NC(=O)CC(C)(C)C)ccc1N1CCOCC1,"inconclusive: 14.6 µM [falling, partial curve]"
5,O=C(NCc1cccnc1)c1ccc(CS(=O)(=O)c2ccc(Br)cc2)o1,active: 14.6 µM
6,COc1ccc(Oc2cc(Cl)nc(N)n2)cc1,inactive
7,COCCNC(=O)c1ccc(C2SCC(=O)N2CCc2ccccc2)cc1 (centres undefined),inactive
8,CC(=O)c1c(C)[nH]c(C(=O)CSc2nc3ccccc3c(=O)n2CCCO)c1C,"inconclusive: 14.6 µM [falling, single point]"
9,Cc1ccc(-c2nc(CN(C)Cc3cccc4cnccc34)c(C)o2)s1,active: 23.1 µM
10,CCOC(=O)c1noc2ncnc(N3CCN(c4cccc(Cl)c4)CC3)c12,"inconclusive: 20.6 µM [falling, partial curve, poor fit]"
11,CCOC(=O)N1CCc2c(sc3c2c(=O)n(-c2ccc(Cl)cc2)c(=O)n3Cc2cccc(OC)c2)C1,inactive
12,COc1ccc(OC)c(C2=Nn3c(nnc3-c3cc(OC)c(OC)c(OC)c3)SC2)c1,"inconclusive: 29.1 µM [falling, single point]"
13,O=C(NNC(=S)NC(=O)c1cccnc1)c1ccccc1,"inconclusive: 0.0058 µM [falling, full curve, poor fit]"
14,COc1ccc(-c2nnc(SCC(=O)c3cccs3)o2)c(OC)c1,"inconclusive: 23.1 µM [activator, single point]"
15,O=C(NNCc1ccccc1)c1ccccc1,"inconclusive: 1.46 µM [activator, partial curve, poor fit]"
16,COc1ccc(-c2nc3nc(C)cc(N4CCN(c5cccc(C(F)(F)F)c5)CC4)n3n2)cc1,inactive
17,N#C/C(=N\Nc1ccc(Cl)cc1)C(=O)c1ccsc1,active: 16.4 µM
18,O=C(O)c1ccc(CN(Cc2ccccc2)S(=O)(=O)c2ccc(Cl)cc2)cc1,inactive
19,c1ccc2c(C[n+]3csc4ccccc43)cccc2c1,"inconclusive: 14.6 µM [activator, partial curve, poor fit]"
20,CN(Cc1ccccc1)C(=O)c1ccc(NC(=O)Cc2ccc(NC(=O)C3CCCN(C(=O)C4CCC4)C3)cc2)cc1 (centres undefined),"inconclusive: 29.1 µM [falling, single point]"
21,Cn1c(=O)c(-c2ccccc2)nc2ccccc21,"inconclusive: 20.6 µM [activator, partial curve]"
22,COc1ccc(CCC(=O)c2ccc(OC)cc2)cc1,inactive

row,Compound,Potency
1,C[C@H](CO)N1C[C@H](C)[C@@H](CN(C)S(=O)(=O)c2ccc(F)cc2)Oc2ccc(NS(=O)(=O)c3ccc(F)cc3)cc2C1=O,inactive
2,O=C(O)c1ccccc1NS(=O)(=O)c1ccccc1C(F)(F)F,"inconclusive: 0.231 µM [falling, full curve, poor fit]"
3,COC(=O)c1ccccc1NC(=O)NCc1ccc2c(c1)OCO2,"inconclusive: 16.4 µM [falling, partial curve, poor fit]"
4,Cc1cc(-c2ccc(C)c(S(=O)(=O)NCCCN3CCCCCC3)c2)on1,"inconclusive: 23.1 µM [activator, single point]"
5,CCn1c(=O)cc(SCC(=O)NCCc2cccc(C)c2)c2ccccc21,"inconclusive: 6.51 µM [activator, single point]"
6,O=C(Nc1ccc2c(c1)CCC2)c1cccc(F)c1,"inconclusive: 8.2 µM [activator, partial curve]"
7,COC(=O)c1ccccc1N(C)S(=O)(=O)c1cc2c3c(c1)CCC(=O)N3CCC2,"inconclusive: 16.4 µM [falling, partial curve, poor fit]"
8,O=S(=O)(c1ccc2[nH]c3c(c2c1)CCCC3)N1CCN(c2cccc(C(F)(F)F)c2)CC1,"inconclusive: 16.4 µM [falling, single point]"
9,CCOC(=O)N1CCN(Cc2c(O)ccc3ccccc23)CC1,inactive
10,Cc1cc(C)cc(Nc2nc3ccccc3n3cnnc23)c1,inactive
11,CC(C)CNS(=O)(=O)c1ccc(CCC(=O)N2CCN(c3ccccc3)CC2)cc1,active: 10.3 µM
12,CCOC(=O)N1CCN(C(=O)Nc2sc3nc4n(c(=O)c3c2C)CCC(C)CC4)CC1 (centres undefined),inactive
13,Cc1occc1-c1nc(-c2ccncc2)no1,"inconclusive: 29.1 µM [activator, single point]"
14,COc1ccc(N2CC(C(=O)Nc3ccc(S(=O)(=O)N4CCCCC4)cc3)CC2=O)cc1 (centres undefined),active: 20.6 µM
15,CN1C(C(=O)c2ccccc2)=C(NC(=O)c2ccccc2Br)c2ccccc2S1(=O)=O,"inconclusive: 16.4 µM [falling, partial curve]"
16,COc1ccc(Cn2c(O)c(C=Nc3ccc(C)cc3)c3ccccc3c2=O)cc1,active: 9.2 µM
17,Cc1c(Cl)c(C(=O)NNC(=S)Nc2ccc(F)cc2)nn1C,"inconclusive: 7.31 µM [activator, partial curve]"
18,Cc1cc(C(=O)N2CCN(S(=O)(=O)c3ccc(C)c(C)c3)CC2)no1,"inconclusive: 5.17 µM [falling, partial curve, poor fit]"
19,CCCN(CCC)S(=O)(=O)c1ccc(NC(=O)COc2ccccc2)cc1,"inconclusive: 13 µM [falling, partial curve, poor fit]"
20,CC/C(=N\n1nnnc1Nc1ccccc1)c1ccccc1,"inconclusive: 32.6 µM [falling, partial curve, poor fit]"
21,O=C(NC(Cc1c[nH]c2ccccc12)C(=O)N/N=C/c1cccnc1)c1cccs1 (centres undefined),"inconclusive: 20.6 µM [activator, partial curve]"
22,Cc1ccc(C(=O)Nc2ccccc2N2CCCCC2)cc1S(=O)(=O)N1CCOCC1,"inconclusive: 29.1 µM [falling, single point]"

# A second format for three compounds above:
row | Compound | Potency
14 | COc1ccc(N2CC(C(=O)Nc3ccc(S(=O)(=O)N4CCCCC4)cc3)CC2=O)cc1 (centres undefined) | active: 20.6 µM
15 | CN1C(C(=O)c2ccccc2)=C(NC(=O)c2ccccc2Br)c2ccccc2S1(=O)=O | inconclusive: 16.4 µM [falling, partial curve]
16 | COc1ccc(Cn2c(O)c(C=Nc3ccc(C)cc3)c3ccccc3c2=O)cc1 | active: 9.2 µM
